Laboratory results as given in PMC3307773.
No constants are given. Whether binding was seen depends on the method and setting. Binding seen in cells or lysates may run through a third protein. These calls come from enrichment with a bait or labelling near it, and not all partners need be listed. No binding means not detected with the bait. Values belong to the binder of their own block, whether it stands above or below them.

Protein sequences, listed by entry. Tags and fused reporters are not part of them.
UniProt Q12824: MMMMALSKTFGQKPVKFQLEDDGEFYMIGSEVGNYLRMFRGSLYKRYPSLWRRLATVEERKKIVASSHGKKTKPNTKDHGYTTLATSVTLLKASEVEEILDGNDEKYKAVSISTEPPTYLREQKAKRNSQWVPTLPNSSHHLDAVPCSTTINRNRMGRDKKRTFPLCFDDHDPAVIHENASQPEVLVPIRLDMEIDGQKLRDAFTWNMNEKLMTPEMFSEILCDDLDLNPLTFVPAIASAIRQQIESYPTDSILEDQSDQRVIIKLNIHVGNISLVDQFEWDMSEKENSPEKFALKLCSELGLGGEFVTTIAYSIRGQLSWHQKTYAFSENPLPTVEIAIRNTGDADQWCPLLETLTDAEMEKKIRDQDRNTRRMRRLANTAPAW
UniProt Q92785: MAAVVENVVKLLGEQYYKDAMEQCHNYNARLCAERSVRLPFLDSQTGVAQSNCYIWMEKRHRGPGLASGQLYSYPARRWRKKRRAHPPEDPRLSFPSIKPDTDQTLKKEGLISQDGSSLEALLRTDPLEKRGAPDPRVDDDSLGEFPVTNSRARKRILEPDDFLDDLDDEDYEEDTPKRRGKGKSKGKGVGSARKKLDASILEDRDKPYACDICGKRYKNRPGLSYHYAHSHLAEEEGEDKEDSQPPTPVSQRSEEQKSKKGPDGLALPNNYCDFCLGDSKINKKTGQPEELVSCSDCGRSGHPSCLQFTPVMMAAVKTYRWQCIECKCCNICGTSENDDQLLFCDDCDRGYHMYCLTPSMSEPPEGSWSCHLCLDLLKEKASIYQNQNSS

Legend:
Assay in all cases: affinity purification with mass spectrometry; tandem affinity purification: whole cell extracts of stable Hek293 clones on IgG sepharose, TEV cleavage, pre-clearing with protein A beads, immunoprecipitation with anti-MYC (PHF10: anti-TY1), peptide elution, SDS-PAGE, silver stain, in-gel trypsin digest, nano-LC FT mass spectrometry
[1] = biological target: SS18^TAP (human)
[2] = biological target: BCL7A^TAP (human)
[3] = biological target: BCL7C^TAP (human) (UniProt Q8WUZ0)
[4] = biological target: INI1^TAP (human) (UniProt Q12824)
[5] = biological target: PHF10^TAP (human)
[6] = biological target: DPF2^TAP (human) (UniProt Q92785)

binding [1]: no binding
B1: RBM14 (protein, UniProt Q96PK6 1-669)
chain: MKIFVGNVDGADTTPEELAALFAPYGTVMSCAVMKQFAFVHMRENAGALRAIEALHGHELRPGRALVVEMSRPRPLNTWKIFVGNVSAACTSQELRSLFERRGRVIECDVVKDYAFVHMEKEADAKAAIAQLNGKEVKGKRINVELSTKGQKKGPGLAVQSGDKTKKPGAGDTAFPGTGGFSATFDYQQAFGNSTGGFDGQARQPTPPFFGRDRSPLRRSPPRASYVAPLTAQPATYRAQPSVSLGAAYRAQPSASLGVGYRTQPMTAQAASYRAQPSVSLGAPYRGQLASPSSQSAAASSLGPYGGAQPSASALSSYGGQAAAASSLNSYGAQGSSLASYGNQPSSYGAQAASSYGVRAAASSYNTQGAASSLGSYGAQAASYGAQSAASSLAYGAQAASYNAQPSASYNAQSAPYAAQQAASYSSQPAAYVAQPATAAAYASQPAAYAAQATTPMAGSYGAQPVVQTQLNSYGAQASMGLSGSYGAQSAAAATGSYGAAAAYGAQPSATLAAPYRTQSSASLAASYAAQQHPQAAASYRGQPGNAYDGAGQPSAAYLSMSQGAVANANSTPPPYERTRLSPPRASYDDPYKKAVAMSKRYGSDRRLAELSDYRRLSESQLSFRRSPTKSSLDYRRLPDAHSDYARYSGSYNDYLRAAQMHSGYQRRM

binding [2]: no binding
binding [3]: no binding
B2: BAF45A (protein, UniProt Q8WUB8 1-498)
chain: MAAAAGPGAALSPRPCDSDPATPGAQSPKDDNEDNSNDGTQPSKRRRMGSGDSSRSCETSSQDLGFSYYPAENLIEYKWPPDETGEYYMLQEQVSEYLGVTSFKRKYPDLERRDLSHKEKLYLRELNVITETQCTLGLTALRSDEVIDLMIKEYPAKHAEYSVILQEKERQRITDHYKEYSQMQQQNTQKVEASKVPEYIKKAAKKAAEFNSNLNRERMEERRAYFDLQTHVIQVPQGKYKVLPTERTKVSSYPVALIPGQFQEYYKRYSPDELRYLPLNTALYEPPLDPELPALDSDGDSDDGEDGRGDEKRKNKGTSDSSSGNVSEGESPPDSQEDSFQGRQKSKDKAATPRKDGPKRSVLSKSVPGYKPKVIPNAICGICLKGKESNKKGKAESLIHCSQCENSGHPSCLDMTMELVSMIKTYPWQCMECKTCIICGQPHHEEEMMFCDMCDRGYHTFCVGLGAIPSGRWICDCCQRAPPTPRKVGRRGKNSKEG

binding [4]: no binding
binding [5]: no binding
binding [2]: no binding
binding [6]: no binding
binding [3]: no binding
binding [1]: no binding
B3: MYBBP1A (protein, UniProt Q9BQG0 1-1328)
chain: MESRDPAQPMSPGEATQSGARPADRYGLLKHSREFLDFFWDIAKPEQETRLAATEKLLEYLRGRPKGSEMKYALKRLITGLGVGRETARPCYSLALAQLLQSFEDLPLCSILQQIQEKYDLHQVKKAMLRPALFANLFGVLALFQSGRLVKDQEALMKSVKLLQALAQYQNHLQEQPRKALVDILSEVSKATLQEILPEVLKADLNIILSSPEQLELFLLAQQKVPSKLKKLVGSVNLFSDENVPRLVNVLKMAASSVKKDRKLPAIALDLLRLALKEDKFPRFWKEVVEQGLLKMQFWPASYLCFRLLGAALPLLTKEQLHLVMQGDVIRHYGEHVCTAKLPKQFKFAPEMDDYVGTFLEGCQDDPERQLAVLVAFSSVTNQGLPVTPTFWRVVRFLSPPALQGYVAWLRAMFLQPDLDSLVDFSTNNQKKAQDSSLHMPERAVFRLRKWIIFRLVSIVDSLHLEMEEALTEQVARFCLFHSFFVTKKPTSQIPETKHPFSFPLENQAREAVSSAFFSLLQTLSTQFKQAPGQTQGGQPWTYHLVQFADLLLNHSHNVTTVTPFTAQQRQAWDRMLQTLKELEAHSAEARAAAFQHLLLLVGIHLLKSPAESCDLLGDIQTCIRKSLGEKPRRSRTKTIDPQEPPWVEVLVEILLALLAQPSHLMRQVARSVFGHICSHLTPRALQLILDVLNPETSEDENDRVVVTDDSDERRLKGAEDKSEEGEDNRSSESEEESEGEESEEEERDGDVDQGFREQLMTVLQAGKALGGEDSENEEELGDEAMMALDQSLASLFAEQKLRIQARRDEKNKLQKEKALRRDFQIRVLDLVEVLVTKQPENALVLELLEPLLSIIRRSLRSSSSKQEQDLLHKTARIFTHHLCRARRYCHDLGERAGALHAQVERLVQQAGRQPDSPTALYHFNASLYLLRVLKGNTAEGCVHETQEKQKAGTDPSHMPTGPQAASCLDLNLVTRVYSTALSSFLTKRNSPLTVPMFLSLFSRHPVLCQSLLPILVQHITGPVRPRHQACLLLQKTLSMREVRSCFEDPEWKQLMGQVLAKVTENLRVLGEAQTKAQHQQALSSLELLNVLFRTCKHEKLTLDLTVLLGVLQGQQQSLQQGAHSTGSSRLHDLYWQAMKTLGVQRPKLEKKDAKEIPSATQSPISKKRKKKGFLPETKKRKKRKSEDGTPAEDGTPAATGGSQPPSMGRKKRNRTKAKVPAQANGTPTTKSPAPGAPTRSPSTPAKSPKLQKKNQKPSQVNGAPGSPTEPAGQKQHQKALPKKGVLGKSPLSALARKKARLSLVIRSPSLLQSGAKKKAQVRKAGKP
